Some of these results come from one statement about several compounds together.
Test system: Gram-negative and Gram-positive bacterial strains
Type: cell-based
Settings: not given

Compound	activity against the Gram-positive strains S. aureus and S. pneumoniae (in words)
1-[(2S)-3-{[(3aR,6R,7aR)-2-oxo-3-{3-oxo-2H,3H,4H-pyrido[3,2-b][1,4]oxazin-6-yl}-octahydro-1,3-benzoxazol-6-yl]amino}-2-hydroxypropyl]-7-fluoro-1,2-dihydroquinoxalin-2-one & 1-[(2R)-3-{[(3aR,6R,7aR)-2-oxo-3-{3-oxo-2H,3H,4H-pyrido[3,2-b][1,4]oxazin-6-yl}-octahydro-1,3-benzoxazol-6-yl]amino}-2-hydroxypropyl]-7-fluoro-1,2-dihydroquinoxalin-2-one [Compound 94]	excellent activity

Same assay, conditions: A. baumannii, E. coli, E. cloacae, P. aeruginosa and H. influenzae

Compound	activity against all strains of A. baumannii, E. coli, E. cloacae, P. aeruginosa and H. influenzae strains tested (in words)
N#Cc1cccc(-c2cccc(CN[C@@H]3CC[C@@H]4[C@@H](C3)OC(=O)N4c3ccc4c(n3)NC(=O)CO4)c2O)n1 [Compound 40, 6-[3-({[(3aR,6R,7aR)-2-oxo-3-{3-oxo-2H,3H,4H-pyrido[3,2-b][1,4]oxazin-6-yl}-octahydro-1,3-benzoxazol-6-yl]amino}methyl)-2-hydroxyphenyl]pyridine-2-carbonitrile]	excellent activity
O=C1COc2ccc(N3C(=O)O[C@H]4C[C@@H](NCCCn5c(=O)ccc6ncc(OC(F)F)cc65)CC[C@@H]43)nc2N1 [Compound 93, 1-(3-{[(3aS,6S,7aS)-2-oxo-3-{3-oxo-2H,3H,4H-pyrido[3,2-b][1,4]oxazin-6-yl}-octahydro-1,3-benzoxazol-6-yl]amino}propyl)-7-(difluoromethoxy)-1,2-dihydro-1,5-naphthyridin-2-one]	excellent activity
COc1ccc2ccc(=O)n(CCCN[C@@H]3CC[C@@H]4[C@@H](C3)OC(=O)N4c3ccc4c(n3)NC(=O)CO4)c2n1 [Compound 76, 1-(3-{[(3aR,6R,7aR)-2-oxo-3-{3-oxo-2H,3H,4H-pyrido[3,2-b][1,4]oxazin-6-yl}-octahydro-1,3-benzoxazol-6-yl]amino}propyl)-7-methoxy-1,2-dihydro-1,8-naphthyridin-2-one]	excellent activity
COc1ccc2ncc(=O)n(CCN[C@H]3CC[C@H]4[C@@H](C3)OC(=O)N4c3ccc4c(n3)NC(=O)CO4)c2c1 [Compound 24, 1-(2-{[(3aS,6S,7aR)-2-oxo-3-{3-oxo-2H,3H,4H-pyrido[3,2-b][1,4]oxazin-6-yl}-octahydro-1,3-benzoxazol-6-yl]amino}ethyl)-7-methoxy-1,2-dihydroquinoxalin-2-one]	excellent activity
COc1ccc2ccc(=O)n(CCN[C@H]3CC[C@H]4[C@H](C3)OC(=O)N4c3ccc4c(n3)NC(=O)CS4)c2n1 [Compound 61, 1-(2-{[(3aS,6S,7aS)-2-oxo-3-{3-oxo-2H,3H,4H-pyrido[3,2-b][1,4]thiazin-6-yl}-octahydro-1,3-benzoxazol-6-yl]amino}ethyl)-7-methoxy-1,2-dihydro-1,8-naphthyridin-2-one]	excellent activity

Same assay, conditions: S. aureus and S. pneumoniae

Compound	activity against the Gram-positive strains S. aureus and S. pneumoniae (in words)
O=C1COc2cnc(N3C(=O)O[C@H]4C[C@@H](NCCn5c(=O)cnc6cc(F)c(F)cc65)CC[C@@H]43)nc2N1 [Compound 66, 1-(2-{[(3aS,6S,7aS)-2-oxo-3-{7-oxo-6H,7H,8H-pyrimido[5,4-b][1,4]oxazin-2-yl}-octahydro-1,3-benzoxazol-6-yl]amino}ethyl)-6,7-difluoro-1,2-dihydroquinoxalin-2-one]	excellent activity
N#Cc1cnc2ccc(=O)n(CCN[C@H]3CC[C@H]4[C@H](C3)OC(=O)N4c3ccc4c(n3)NC(=O)CO4)c2c1 [Compound 55, 5-(2-{[(3aS,6S,7aS)-2-oxo-3-{3-oxo-2H,3H,4H-pyrido[3,2-b][1,4]oxazin-6-yl}-octahydro-1,3-benzoxazol-6-yl]amino}ethyl)-6-oxo-5,6-dihydro-1,5-naphthyridine-3-carbonitrile]	excellent activity
COc1ccc2ccc(=O)n(CCN[C@H]3CC[C@H]4[C@H](C3)OC(=O)N4c3ncc4c(n3)NC(=O)CO4)c2n1 [Compound 67, 1-(2-{[(3aS,6S,7aS)-2-oxo-3-{7-oxo-6H,7H,8H-pyrimido[5,4-b][1,4]oxazin-2-yl}-octahydro-1,3-benzoxazol-6-yl]amino}ethyl)-7-methoxy-1,2-dihydro-1,8-naphthyridin-2-one]	excellent activity
N#Cc1cnc2ccc(=O)n(CCN[C@H]3CC[C@H]4[C@H](C3)OC(=O)N4c3ccc4c(n3)NC(=O)CS4)c2c1 [Compound 77, 5-(2-{[(3aS,6S,7aS)-2-oxo-3-{3-oxo-2H,3H,4H-pyrido[3,2-b][1,4]thiazin-6-yl}-octahydro-1,3-benzoxazol-6-yl]amino}ethyl)-6-oxo-5,6-dihydro-1,5-naphthyridine-3-carbonitrile]	excellent activity
COc1ccc2ccc(=O)n(CCN[C@H]3CC[C@H]4[C@@H](C3)OC(=O)N4c3ncc4c(n3)NC(=O)CO4)c2n1 [Compound 16]	excellent activity
Cc1ccc2ncc(=O)n(CCN[C@H]3CC[C@H]4[C@@H](C3)OC(=O)N4c3ccc4c(n3)NC(=O)CO4)c2c1 [Compound 27, 1-(2-{[(3aS,6S,7aR)-2-oxo-3-{3-oxo-2H,3H,4H-pyrido[3,2-b][1,4]oxazin-6-yl}-octahydro-1,3-benzoxazol-6-yl]amino}ethyl)-7-methyl-1,2-dihydroquinoxalin-2-one]	excellent activity
COc1cnc2ccc(=O)n(CCN[C@@H]3CC[C@@H]4[C@@H](C3)OC(=O)N4c3ccc4c(n3)NC(=O)CO4)c2c1 [Compound 69, 1-(2-{[(3aR,6R,7aR)-2-oxo-3-{3-oxo-2H,3H,4H-pyrido[3,2-b][1,4]oxazin-6-yl}-octahydro-1,3-benzoxazol-6-yl]amino}ethyl)-7-methoxy-1,2-dihydro-1,5-naphthyridin-2-one]	excellent activity
N#Cc1ccc2c(ccc(=O)n2CCN[C@@H]2CC[C@@H]3[C@@H](C2)OC(=O)N3c2ccc3c(n2)NC(=O)CO3)c1 [Compound 106, 1-(2-{[(3aR,6R,7aR)-2-oxo-3-{3-oxo-2H,3H,4H-pyrido[3,2-b][1,4]oxazin-6-yl}-octahydro-1,3-benzoxazol-6-yl]amino}ethyl)-2-oxo-1,2-dihydroquinoline-6-carbonitrile]	excellent activity
N#Cc1cnc2ccc(=O)n(CCN[C@H]3CC[C@H]4[C@@H](C3)OC(=O)N4c3ccc4c(n3)NC(=O)CO4)c2c1 [Compound 46, 5-(2-{[(3aS,6S,7aR)-2-oxo-3-{3-oxo-2H,3H,4H-pyrido[3,2-b][1,4]oxazin-6-yl}-octahydro-1,3-benzoxazol-6-yl]amino}ethyl)-6-oxo-5,6-dihydro-1,5-naphthyridine-3-carbonitrile]	excellent activity
COc1cnc2ccc(=O)n(CCN[C@H]3CC[C@H]4[C@H](C3)OC(=O)N4c3ccc4c(n3)NC(=O)CS4)c2c1 [Compound 81, 1-(2-{[(3aS,6S,7aS)-2-oxo-3-{3-oxo-2H,3H,4H-pyrido[3,2-b][1,4]thiazin-6-yl}-octahydro-1,3-benzoxazol-6-yl]amino}ethyl)-7-methoxy-1,2-dihydro-1,5-naphthyridin-2-one]	excellent activity
N#Cc1ccc2ccc(=O)n(CCN[C@@H]3CC[C@@H]4[C@@H](C3)OC(=O)N4c3ncc4c(n3)NC(=O)CO4)c2c1 [Compound 37, 1-(2-{[(3aR,6R,7aR)-2-oxo-3-{7-oxo-6H,7H,8H-pyrimido[5,4-b][1,4]oxazin-2-yl}-octahydro-1,3-benzoxazol-6-yl]amino}ethyl)-2-oxo-1,2-dihydroquinoline-7-carbonitrile]	excellent activity
O=C1COc2ccc(N3C(=O)O[C@H]4C[C@@H](NCCCn5c(=O)ccc6ncc(OC(F)F)cc65)CC[C@@H]43)nc2N1 [Compound 93, 1-(3-{[(3aS,6S,7aS)-2-oxo-3-{3-oxo-2H,3H,4H-pyrido[3,2-b][1,4]oxazin-6-yl}-octahydro-1,3-benzoxazol-6-yl]amino}propyl)-7-(difluoromethoxy)-1,2-dihydro-1,5-naphthyridin-2-one]	excellent activity
COc1ccc2ccc(=O)n(CCCN[C@@H]3CC[C@@H]4[C@@H](C3)OC(=O)N4c3ccc4c(n3)NC(=O)CO4)c2n1 [Compound 76, 1-(3-{[(3aR,6R,7aR)-2-oxo-3-{3-oxo-2H,3H,4H-pyrido[3,2-b][1,4]oxazin-6-yl}-octahydro-1,3-benzoxazol-6-yl]amino}propyl)-7-methoxy-1,2-dihydro-1,8-naphthyridin-2-one]	excellent activity
COc1ccc2ccc(=O)n(CCN(C(=O)CN)[C@H]3CC[C@H]4[C@H](C3)OC(=O)N4c3ccc4c(n3)NC(=O)CO4)c2n1 [Compound 78, {[(3aS,6S,7aS)-2-oxo-3-{3-oxo-2H,3H,4H-pyrido[3,2-b][1,4]oxazin-6-yl}-octahydro-1,3-benzoxazol-6-yl][2-(7-methoxy-2-oxo-1,2-dihydro-1,8-naphthyridin-1-yl)ethyl]carbamoyl}methanaminium chloride]	excellent activity
O=C1COc2ccc(N3C(=O)O[C@@H]4C[C@H](NCCn5c(=O)cnc6ccc(F)cc65)CC[C@H]43)nc2N1 [Compound 86, 1-(2-{[(3aR,6R,7aR)-2-oxo-3-{3-oxo-2H,3H,4H-pyrido[3,2-b][1,4]oxazin-6-yl}-octahydro-1,3-benzoxazol-6-yl]amino}ethyl)-7-fluoro-1,2-dihydroquinoxalin-2-one]	excellent activity
COc1ccc2ncc(=O)n(CCN[C@H]3CC[C@H]4[C@@H](C3)OC(=O)N4c3ccc4c(n3)NC(=O)CO4)c2c1 [Compound 24, 1-(2-{[(3aS,6S,7aR)-2-oxo-3-{3-oxo-2H,3H,4H-pyrido[3,2-b][1,4]oxazin-6-yl}-octahydro-1,3-benzoxazol-6-yl]amino}ethyl)-7-methoxy-1,2-dihydroquinoxalin-2-one]	excellent activity
COc1ccc2ccc(=O)n(CCN[C@H]3CC[C@H]4[C@H](C3)OC(=O)N4c3ccc4c(n3)NC(=O)CS4)c2n1 [Compound 61, 1-(2-{[(3aS,6S,7aS)-2-oxo-3-{3-oxo-2H,3H,4H-pyrido[3,2-b][1,4]thiazin-6-yl}-octahydro-1,3-benzoxazol-6-yl]amino}ethyl)-7-methoxy-1,2-dihydro-1,8-naphthyridin-2-one]	excellent activity
O=C1COc2ccc(N3C(=O)O[C@@H]4C[C@H](NCCn5c(=O)cnc6cc(F)c(F)cc65)CC[C@H]43)nc2N1 [Compound 70, 1-(2-{[(3aR,6R,7aR)-2-oxo-3-{3-oxo-2H,3H,4H-pyrido[3,2-b][1,4]oxazin-6-yl}-octahydro-1,3-benzoxazol-6-yl]amino}ethyl)-6,7-difluoro-1,2-dihydroquinoxalin-2-one]	excellent activity
O=C1COc2ccc(N3C(=O)O[C@H]4C[C@@H](NCCn5c(=O)ccc6ccc(OC(F)F)cc65)CC[C@@H]43)nc2N1 [Compound 101, 1-(2-{[(3aS,6S,7aS)-2-oxo-3-{3-oxo-2H,3H,4H-pyrido[3,2-b][1,4]oxazin-6-yl}-octahydro-1,3-benzoxazol-6-yl]amino}ethyl)-7-(difluoromethoxy)-1,2-dihydro quinolin-2-one]	excellent activity

Source: patent US10487093B2, “Heterocyclic compounds, in particular 2-oxo-4,4,5,5,6,6,7,7-octahydrobenzoxazole derivatives, and their use as antibacterial compounds” (priority 2016, dated 2019)
